This note sets out measurements from article PMC10541201.

Chains of the proteins cited; added tags and fusions are not shown.
UniProt Q86TM6: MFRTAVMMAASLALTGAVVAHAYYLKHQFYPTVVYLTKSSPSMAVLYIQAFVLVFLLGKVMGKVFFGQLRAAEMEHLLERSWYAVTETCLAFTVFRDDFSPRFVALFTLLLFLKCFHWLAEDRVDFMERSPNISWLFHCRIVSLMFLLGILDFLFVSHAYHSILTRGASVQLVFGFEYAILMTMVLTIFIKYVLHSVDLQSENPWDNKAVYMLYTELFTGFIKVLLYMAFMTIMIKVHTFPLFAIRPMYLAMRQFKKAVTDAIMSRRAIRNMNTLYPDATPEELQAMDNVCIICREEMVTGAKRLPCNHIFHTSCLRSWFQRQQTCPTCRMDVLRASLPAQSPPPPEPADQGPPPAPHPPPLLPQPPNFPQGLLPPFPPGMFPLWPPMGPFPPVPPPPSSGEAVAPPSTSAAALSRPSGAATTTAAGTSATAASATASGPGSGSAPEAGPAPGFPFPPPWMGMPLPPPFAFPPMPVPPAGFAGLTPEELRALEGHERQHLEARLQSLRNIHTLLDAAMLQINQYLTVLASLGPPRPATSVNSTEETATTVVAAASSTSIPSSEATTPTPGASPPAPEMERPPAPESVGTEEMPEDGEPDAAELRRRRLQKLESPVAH

No constants are given. Whether binding was seen depends on the method and setting. In cells and extracts the contact can be indirect. Some results given as binding are weak or reduced against the parent protein; the word gives no strength. Where a sequence is shown, tags or fusion partners need not be part of it.

This experiment concerns the target T1, cystinosin(7Δ)-GFP (human) (UniProt O60931).
T1 sequence: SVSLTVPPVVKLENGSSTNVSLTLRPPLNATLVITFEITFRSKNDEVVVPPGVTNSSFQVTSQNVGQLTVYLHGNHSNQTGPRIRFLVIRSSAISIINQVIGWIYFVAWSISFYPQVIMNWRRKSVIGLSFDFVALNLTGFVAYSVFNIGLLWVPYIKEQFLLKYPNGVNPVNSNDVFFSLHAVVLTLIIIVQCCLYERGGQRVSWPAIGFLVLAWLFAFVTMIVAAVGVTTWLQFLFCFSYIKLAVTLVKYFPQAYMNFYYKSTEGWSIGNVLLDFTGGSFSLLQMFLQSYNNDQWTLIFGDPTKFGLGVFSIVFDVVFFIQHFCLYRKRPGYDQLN
Briefly: co-IP; cystinosin-GFP (7Δ or WT) immunoprecipitated from cells, precipitate blotted for HRD1; HRD1 level quantified relative to 7Δ (100%); 3 independent replicates; protocol of this IP not described.

Consider “HRD1 (from UniProt Q86TM6 1-617) (enzyme)”, for which the binding entry was “binds”.
